Our source for the binding values is article PMC3200332.

In the assay the target is T1, Pyrococcus furiosus soluble hydrogenase I small subunit (SSU, PF0893) with N-terminal His9 tag (Pyrococcus furiosus) (UniProt Q8U2E5).
T1 sequence: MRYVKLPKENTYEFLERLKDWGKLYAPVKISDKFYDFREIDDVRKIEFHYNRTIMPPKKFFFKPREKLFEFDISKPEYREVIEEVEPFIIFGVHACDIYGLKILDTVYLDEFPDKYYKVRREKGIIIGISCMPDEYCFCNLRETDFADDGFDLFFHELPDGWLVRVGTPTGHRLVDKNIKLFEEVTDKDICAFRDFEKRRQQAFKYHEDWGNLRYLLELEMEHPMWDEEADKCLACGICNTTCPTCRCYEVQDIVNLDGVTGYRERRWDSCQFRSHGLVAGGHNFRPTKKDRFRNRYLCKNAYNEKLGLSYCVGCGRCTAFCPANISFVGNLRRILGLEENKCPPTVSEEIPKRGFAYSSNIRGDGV
Put plainly: SEC; purified OE-SHI Dimer preparation (co-purified complex from P. furiosus) on a calibrated Superdex S200 sizing column; apparent Mr; both purified. For orientation: Size exclusion chromatography separates by hydrodynamic size, large species first.

These are yes or no findings as the source states them, for the method shown. Binding seen in cells or lysates may run through a third protein. A result given as binding can be weak or reduced; the word gives no strength. Where a sequence is shown, tags or fusion partners need not be part of it.

Take “Pyrococcus furiosus soluble hydrogenase I large subunit (LSU, PF0894)”: the binding entry is “binds”.
